Test results: US9682092B2, “Boron-containing small molecules as anti-inflammatory agents” (ANACOR PHARMACEUTICALS, INC., priority 2006, dated 2017)
At least one structure is not confirmed: it was looked up by name or label, or the drawing left a doubt. Some results were stated once for a whole list of compounds, not compound by compound.

Key:
PMA-induced ear swelling = test: Topical, Phorbol Ester Mouse Ear Assay; type: in vivo, CD-1 (Crl.) derived male mice; details: for Percent inhibition of ear swelling induced by topical phorbol ester: 30 min before and 15 min after PMA, ear swelling measured 6 hours after PMA
Description: 5-(4-Cyanophenoxy)-1-hydroxy-2,1-dihydrobenzoxaborole and betamethasone were provided by Anacor Pharmaceuticals, Inc. Betamethasone is used to treat the itching, redness, dryness, crusting, scaling, inflammation, and discomfort of various skin conditions.
Test substances were each applied topically to the right ear of the test animal 30 minutes before and 15 minutes after Phorbol 12-Myristate 13-Acetate (PMA) was applied. The dosing volume was 20 μl/ear for solvent vehicle or 20 mg/ear for cream formulations.
Male CD-1 (Crl.) derived mice weighing 24±2 g were provided by BioLasco Taiwan (under Charles River Laboratories Technology Licensee). Space allocation for 10 animals was 29×18×13 cm. Mice were housed in APEC® cages. All animals were maintained in a controlled temperature (22° C.-23° C.) and humidity (70%-80%) environment with 12 hours light dark cycles for at least one week in MDS Pharma Services—Taiwan Laboratory prior to use. Free access to standard lab chow for mice (Lab Diet, Rodent Diet, PMI Nutrition International, USA) and tap water was granted. All aspects of this work including housing, experimentation and disposal of animals were performed in general accordance with the Guide for the Care and Use of Laboratory Animals (National Academy Press, Washington, D.C., 1996).
Groups of 5 CD-1 (Crl.) derived male mice weighing 24±2 g were used. PMA ([…] in 20 μl of Acetone) was applied topically to the anterior and posterior surfaces of the right ear to each animal. Vehicle (Ethanol:Acetone/1:1, 20 μL/ear or cream, 20 mg/ear) and test substances including 5-(4-cyanophenoxy)-1-hydroxy-2,1-dihydrobenzoxaborole and betamethasone were each applied 30 minutes before and 15 minutes after PMA application. […] Ear swelling was then measured by a Dyer model micrometer gauge at 6 hours after PMA application as an index of inflammation. Percent inhibition was calculated according to the formula: ([Ic−It]/Ic)×100%, where Ic and It refer to increase of ear thickness (mm) in control and treated mice, respectively. […]

[1] = system: human peripheral blood mononucleocytes (PBMC); test: Cytokine release in PHA-stimulated frozen human PBMC (Luminex 4-plex assay); type: cell-based; details: 50 nM positive control; PHA 20 ug/mL; supernatant at 24 and 48 hours

N#Cc1ccc(Oc2ccc3c(c2)COB3O)cc1 [C17, 5-(4-Cyanophenoxy)-1,3-dihydro-1-hydroxy-2,1-benzoxaborole]
Percent inhibition of ear swelling induced by topical phorbol ester (PMA-induced ear swelling; 1 mg/ear×2 topical): ≥ 30%

C[C@H]1C[C@H]2[C@@H]3CCC4=CC(=O)C=C[C@]4(C)[C@@]3(F)[C@@H](O)C[C@]2(C)[C@@]1(O)C(=O)CO [Betamethasone, reference compound]
inhibition of the PMA-induced ear swelling (in words) (PMA-induced ear swelling; 0.2 mg/ear×2, versus vehicle or cream placebo control): significant inhibition | Percent inhibition of ear swelling induced by topical phorbol ester (PMA-induced ear swelling; 0.2 mg/ear×2 topical): ≥ 30%

C[C@@H]1C[C@H]2[C@@H]3CCC4=CC(=O)C=C[C@]4(C)[C@@]3(F)[C@@H](O)C[C@]2(C)[C@@]1(O)C(=O)CO [dexamethasone, Dexamethasone, reference compound]
inhibition of cytokine secretion (IL-1β, IL-4, TNF-α, IFNγ) [1]: within the expected range
